PMC12362111, “Cu/Zn-superoxide dismutase naturally fused with a β-propeller lactonase in Deinococcus radiodurans” (The Journal of Biological Chemistry, 2025)
No constants are given. Whether binding was seen depends on the method and setting.

B1: Cu/Zn-superoxide dismutase from Deinococcus radiodurans (DrSOD), without the signal peptide (enzyme, UniProt Q9RYV4 24-462)
chain: ATPLSATAALRDGAGQVVGSARFVQQGAGVQVTVDVRGLTPGMHGMHVHEFGRCTPGVDPAVNKVVPFGAAGGHFDPSMSRNHDTPQTDNKHGHGGDTPMLSVGADGVGKASFTSTKISLTGENGILNRSLVIHANPDDYKTDPAGMSGARERCGVIVRDGLSVRDYALPGPVDHPEGVAYDAKKGLIYTGSAQNGTIYAINAQSGAVTKFQEGGAYGRQVALGLKVDPQGRLWIAGGAQGTVSILTPDGMTLAVLETPKSPRPYINDLVLAPDGNFYVTDSSRPVIFRVDKALKLTAWLDLAGTPIKYGPGVNLNGIAATPDGKYLLAVQLNTGELWRIDLKTKAVKKVMDGLVNGDGLLLDGRTLYVARNKDQVVAKVSLSADYGSGQLVAQEPLNGLRFPATLAKVGNDLVVTQAQLDRIGGTPETPFKLTRFAKF
B2: Cu/Zn-SOD domain of DrSOD (DrSOD^SOD) (domain or fragment, UniProt Q9RYV4 24-184)
chain: ATPLSATAALRDGAGQVVGSARFVQQGAGVQVTVDVRGLTPGMHGMHVHEFGRCTPGVDPAVNKVVPFGAAGGHFDPSMSRNHDTPQTDNKHGHGGDTPMLSVGADGVGKASFTSTKISLTGENGILNRSLVIHANPDDYKTDPAGMSGARERCGVIVRDGW

Tests used:
[1] = target: Cu/Zn-superoxide dismutase from Deinococcus radiodurans (DrSOD), without the signal peptide (Deinococcus radiodurans) (UniProt Q9RYV4); assay: SEC-MALS; 25 μM protein loaded on a gel filtration column (LW-803, SHODEX); MN buffer (50 mM MOPS, 100 mM NaCl, pH 7.0) for the holo forms, MN buffer with 5 mM EDTA for the metal-free apo state; monomer against dimer; both purified
[2] = target: Cu/Zn-SOD domain of DrSOD (DrSOD^SOD) (Deinococcus radiodurans) (UniProt Q9RYV4); assay: as above

| Binder | binding [1] | binding [2] |
| --- | --- | --- |
| B1 | no binding (tested: 25 μM) |  |
| B2 |  | no binding (tested: 25 μM) |
